PubChem BioAssay AID1259272, Sanger Institute, 2017

- Aim: 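Kinase knock-downs lethal to colorectal cancer cells, with or without anchor drugs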 (primary screen)
- System: SW1116 human colorectal cancer cells
- Knock-down reagent: siRNA pool against human genes
- Treatment: anchor drugs BYL719 (1 µM), cetuximab (5 µg/ml) or trametinib (10 nM), or DMSO vehicle; exposure length not given
- Measured: 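Replicate-averaged viability versus control-pool wells, with a robust z-score for siRNA alone and a per-drug synergy score (BYL719, cetuximab, trametinib)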
- Scale: viability z-score, no drug: higher = more cells remaining; strongly negative means essential gene; viability, no drug: higher = more viable cells; synergy score with BYL719 and synergy score with cetuximab and synergy score with trametinib: higher = stronger synthetic-lethal synergy with the drug
- Active means: 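a robust z-score under -3 with siRNA and no drug marks the gene essential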
- Calls: active = essential (knock-down alone); inactive = no change
Shown is one part, drawn at random, of 794 reagents tested. Over the whole deposit, 7 (0.88%) were called active. 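Essential calls reflect knock-down without drug only, not synergy with drugs; drug exposure length not given.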 Unmarked entries are inactive. No viability above 1 is reported: the scale is capped. Not given: the amount of reagent, the time to read-out.

no.	gene knocked down	viability z-score, no drug	viability, no drug (fraction of control)	synergy score with BYL719	synergy score with cetuximab	synergy score with trametinib
1	MELK (maternal embryonic leucine zipper kinase)	0.404	0.953	-0.0909	0.0214	-0.0071
2	MAP2K1 (mitogen-activated protein kinase kinase 1)	0.631	0.978	-0.0387	0.0404	0.106
3	TSSK2 (testis specific serine kinase 2)	-0.16	0.893	-0.084	-0.0539	-0.00313
4	FRK (fyn related Src family tyrosine kinase)	-0.99	0.805	-0.247	-0.186	-0.0435
5	WHR1 (winged helix repair factor 1)	0.842	1	-0.0352	-0.044	0.0501
6	CDKL5 (cyclin dependent kinase like 5)	0.165	0.928	-0.104	-0.11	0.053
7	PRKCA (protein kinase C alpha)	-1.08	0.796	-0.192	-0.0488	0.087
8	CHKB (choline kinase beta)	-0.948	0.809	-0.174	-0.23	-0.0961
9	MAP3K20 (mitogen-activated protein kinase kinase kinase 20)	0.23	0.935	-0.0248	-0.0614	-0.107
10	PDK4 (pyruvate dehydrogenase kinase 4)	-0.129	0.897	-0.0466	0.0655	0.0302
11	ACVR2B (activin A receptor type 2B)	0.68	0.983	0.112	0.0412	0.0958
12	ADK (adenosine kinase)	0.0278	0.913	-0.115	0.0138	0.0385
13	GUK1 (guanylate kinase 1)	0.527	0.966	-0.105	-0.00223	-0.124
14	CKMT1B (creatine kinase, mitochondrial 1B)	-0.849	0.82	-0.0791	-0.0886	0.0155
15	FXR1 (FMR1 autosomal homolog 1)	0.252	0.937	-0.109	-0.0522	0.148
16	PFKM (phosphofructokinase, muscle)	-0.851	0.82	-0.232	-0.0772	0.0374
17	AXIN2 (axin 2)	0.842	1	0.0822	-0.0251	0.101
18	AKT2 (AKT serine/threonine kinase 2)	-0.0266	0.907	-0.147	0.105	0.146
19	TLK1 (tousled like kinase 1)	0.467	0.96	0.101	0.226	0.181
20	LTK (leukocyte receptor tyrosine kinase)	0.842	1	-0.0104	-0.0103	-0.0185
